Test results as given in patent publication US20260216362A1, “ANTI-BDCA2 ANTIBODY-DRUG CONJUGATE AND USE THEREOF” (DUALITY BIOLOGICS (SHANGHAI) CO., LTD., priority 2022, published 2026).
Results are given in words; binding and its absence hold for the method and conditions named. Some results given as binding are weak or reduced against the parent protein; the word gives no strength.

What was measured:
[1] = biological target: recombinant Human BDCA2 (human) (UniProt Q8WTT0); assay: SPR
[2] = biological target: cynomolgus monkey BDCA2 expressed on 293F cells (cynomolgus monkey); assay: FACS on 293F-cynoBDCA2 cells
[3] = biological target: T1, human BDCA2 expressed on CHOK1 cells (human, UniProt Q8WTT0 1-213); assay: FACS on CHOK1-humanBDCA2 cells
T1 construct: whole, on cells; also called CHOK1-hBDCA2; CHOK1-humanBDCA2
T1 sequence (looked up): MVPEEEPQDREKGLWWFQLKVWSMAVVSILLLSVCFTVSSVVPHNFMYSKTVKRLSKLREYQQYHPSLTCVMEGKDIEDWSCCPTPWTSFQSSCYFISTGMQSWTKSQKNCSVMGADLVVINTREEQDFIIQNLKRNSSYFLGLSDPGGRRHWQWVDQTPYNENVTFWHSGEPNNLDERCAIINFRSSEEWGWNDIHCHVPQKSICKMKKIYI

B1: Hu033-03 (antibody, human IgG1, kappa, V domains shown)
VH: EVQLVESGGGLVKPGGSLRLSCAASGFTFSSYGMSWVRQAPGKGLEWVSTISSGDSYTYYPDSVKGRFTISRDNAKNSLYLQMNSLRAEDTAVYYCARQIYYDYAYYFDFWGQGTTVTVSS
VL: DIVLTQSPASLAVSPGQRATITCRASESVSFRTSHLMHWYQQKPGQPPKLLIYGASNLESGVPARFSGSGSETDFTLTINPVEAEDTANYFCQQSIEDPPTFGGGTKVEIKR
notes: Humanized IgG1; also called Hu033-03(BM3)
Which results are given for B1?
binding [1]: binds; binding [2]: binds

B2: Hu033-20 (antibody, human IgG1, kappa, V domains shown)
VH: EVQLVESGGGLVKPGGSLRLSCAASGFTFRSYGMSWVRQAPGKRLEWVSTISSGDSYTYYPDSVKGRFTISRDNAKNSLYLQMNSLKAEDTAVYYCARQIYYDYAYYFDFWGQGTTVTVSS
VL: DIVMTQSPDSLAVSLGERATINCRASESVSFRTSHLMHWYQQKPGQPPKLLIYGASNLESGVPDRFSGSGSGTDFTLTISSLQAEDVAVYYCQQSIEDPPTFGGGTKVEIKR
With B2 as the binder, how does the binding [1] read?
The binding was “binds”.

What about the binding [2] of the same binder?
Its binding is “binds”.

B3: Hu005-04 (antibody, human IgG1, kappa, V domains shown)
VH: QVQLQQSGPGLVKPSETLSLTCTVSGGSLTNYGVHWIRQPPGKGLEWIGVIWSGESTDYDAAFISRVTISKDNSKNQVSLKLSSVTAADTAVYYCARRRSHYYGYVMDYWGQGTTVTVSS
VL: DIVLTQSPASLAVSPGQRATITCKASQSIDYDAIGYLNWYQQKPGQPPKLLIYAASNLESGVPARFSGSGSGTDFTLTINPVEANDTANYYCQQSNEDPPTFGQGTKLEIKR
With B3 as the binder, how does the binding [2] read?
The binding was “binds”.

What about the binding [3] of the same binder?
The binding was “binds”.
